PubChem BioAssay AID1224828, NIAID, 2016

Aim: 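Find genes required for NF-kappaB p65 moving into the nucleus after LPS in mouse macrophages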 (primary screen)
Cells: mouse RAW264.7 G9 macrophage reporter cells (GFP-p65, Tnf promoter-mCherry)
Reagents: siRNA pool against mouse genes, 100 nM
Time to read-out: 2 days siRNA transfection, then 40 min LPS before fixation
Challenge: LPS (Salmonella minnesota R595) at 10 ng/ml
Measured: 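Microscopy ratio of nuclear to perinuclear-ring GFP-p65 signal, scaled to the plate median; gene score is the average of two replicate robust z-scores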
Direction: p65 translocation robust z-score: higher = more nuclear NF-kappaB p65 after LPS than the plate median; nuclear/cytoplasmic p65 ratio: higher = more nuclear NF-kappaB p65
Rule for the call: 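Active if robust z is above 3.3 (negative regulators) or below -1.56, the Tlr4 control median (positive regulators); activity score 50 or more; control wells not called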
Calls: active = hit (p65 shift raised or lowered); inactive = no clear change
In all, the deposit lists about 17,000 reagents; this is a part drawn at random. Over the whole deposit, 762 (4.5%) are marked active. 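Active calls include both raised and lowered p65 entry, mostly lowered; wells with fewer than 50 cells lack a z-score.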 Raw values are not corrected between plates. A number with no mark means an inactive call. The numbers tell different reagents against one gene apart.

gene,reagent no.,p65 translocation robust z-score,"nuclear/cytoplasmic p65 ratio, rep 1","nuclear/cytoplasmic p65 ratio, rep 2",low cell count flag
Inha (inhibin alpha),1,,1.47,1.26,fewer than 50 cells per well; well left out of scoring
Gbp4 (guanylate binding protein 4),1,1.03,1.93,1.76,enough cells to score
"Dffb (DNA fragmentation factor, beta subunit)",1,0.15,1.61,1.3,enough cells to score
Ric3 (RIC3 acetylcholine receptor chaperone),1,0.33,1.55,1.37,enough cells to score
Or12e8 (olfactory receptor family 12 subfamily E member 8),1,1.07,1.9,1.67,enough cells to score
Pja2 (praja ring finger ubiquitin ligase 2),1,1.1,1.6,1.27,enough cells to score
Yme1l1 (YME1-like 1 (S. cerevisiae)),1,-0.66,1.4,1.43,enough cells to score
Syt15 (synaptotagmin XV),1,,1.32,1.18,fewer than 50 cells per well; well left out of scoring
Drd2 (dopamine receptor D2),1,0.38,1.66,1.31,enough cells to score
Or12e9 (olfactory receptor family 12 subfamily E member 9),1,-2.59 (active),1.26,1.2,enough cells to score
Asb3 (ankyrin repeat and SOCS box-containing 3),1,0.25,1.51,1.67,enough cells to score
A430005L14Rik (RIKEN cDNA A430005L14 gene),1,,1.27,1.2,fewer than 50 cells per well; well left out of scoring

Targets above whose gene name starts with A or a (2):
gene,reagent no.,p65 translocation robust z-score,"nuclear/cytoplasmic p65 ratio, rep 1","nuclear/cytoplasmic p65 ratio, rep 2",low cell count flag
Asb3 (ankyrin repeat and SOCS box-containing 3),1,0.25,1.51,1.67,enough cells to score
A430005L14Rik (RIKEN cDNA A430005L14 gene),1,,1.27,1.2,fewer than 50 cells per well; well left out of scoring

Continued.
gene,reagent no.,p65 translocation robust z-score,"nuclear/cytoplasmic p65 ratio, rep 1","nuclear/cytoplasmic p65 ratio, rep 2",low cell count flag
Pik3c2b,1,0.21,1.84,1.32,enough cells to score
Bmp4 (bone morphogenetic protein 4),1,-0.42,1.58,1.52,enough cells to score
Mbnl1 (muscleblind like splicing regulator 1),1,-1.21,1.57,1.33,enough cells to score
"Adat1 (adenosine deaminase, tRNA-specific 1)",1,-0.42,1.51,1.66,enough cells to score
Atf7ip2 (activating transcription factor 7 interacting protein 2),1,-0.21,1.61,1.55,enough cells to score
Atf7ip2 (activating transcription factor 7 interacting protein 2),2,-0.49,1.46,1.81,enough cells to score
Elf1 (E74 like ETS transcription factor 1),1,-0.23,1.46,1.31,enough cells to score
Tmem184c (transmembrane protein 184C),1,0.23,1.57,1.93,enough cells to score
Tal2 (T cell acute lymphocytic leukemia 2),1,-0.32,1.39,1.55,enough cells to score
Dap (death-associated protein),1,-0.87,1.44,1.18,enough cells to score
Spsb1 (splA/ryanodine receptor domain and SOCS box containing 1),1,,1.12,1.07,fewer than 50 cells per well; well left out of scoring
Cetn1 (centrin 1),1,-1.39,1.29,1.2,enough cells to score
